Results on 1 molecule are retold here after patent US20220152100A1, “METHODS FOR CONTROLLED ACTIVATION OR ELIMINATION OF THERAPEUTIC CELLS” (Bellicum Pharmaceuticals, Inc., priority 2014, published 2022).

The subject of this data set is HEK293T/16 cells. Briefly: Western blot of Caspase-9 variants in transfected HEK293T/16 cells. The class given is cell-based, human. Background: A western blot detects proteins with antibodies after separation by electrophoresis.

B1: N405Q: chimeric modified Caspase-9 polypeptide, SEQ ID NO: 26 (protein)
chain: GFGDVGALESLRGNADLAYILSMEPCGHCLIINNVNFCRESGLRTRTGSNIDCEKLRRRFSSLHFMVEVKGDLTAKKMVLALLELARQDHGALDCCVVVILSHGCQASHLQFPGAVYGTDGCPVSVEKIVNIFNGTSCPSLGGKPKLFFIQACGGEQKDHGFEVASTSPEDESPGSNPEPDATPFQEGLRTFDQLDAISSLPTPSDIFVSYSTFPGFVSWRDPKSGSWYVETLDDIFEQWAHSEDLQSLLLRVANAVSVKGIYKQMPGCFQFLRKKLFFKTS
For B1, the protein expression level entry was “appeared darker than the others”.
